From patent publication US20160032278A1
Changes are numbered by the printed parent chain. No constants are given. Whether binding was seen depends on the method and setting. Some entries that bind do so weakly or less than the wild type. Where a sequence is shown, tags or fusion partners need not be part of it.

B1: Ad-ySUMO 22 (designed binder)
chain: NSLEIEELARFAVDEHNKKENALLEFVRVVKAKEQIDLTQSFDMTMYYLTLEAKDGGKKKLYEAKVWVKPIDSNFTGTNFKELQEFKPVGDA
B2: Ad-ySUMO 20 (designed binder)
chain: NSLEIEELARFAVDEHNKKENALLEFVRVVKAKEQIDLTGQWLFTMYYLTLEAKDGGKKKLYEAKVWVKPLWQYDAQYNFKELQEFKPVGDA
B3: Ad-ySUMO 15 (designed binder)
chain: NSLEIEELARFAVDEHNKKENALLEFVRVVKAKEQIDLTQPHDSTMYYLTLEAKDGGKKKLYEAKVWVKYEEDEYWRMNFKELQEFKPVGDA
B4: Ad-ySUMO 10 (designed binder)
chain: NSLEIEELARFAVDEHNKKENALLEFVRVVKAKEQIIIHENDADTMYYLTLEAKDGGKKKLYEAKVWVKGIMDGLNKYNFKELQEFKPVGDA
B5: Ad-ySUMO 17 (designed binder)
chain: NSLEIEELARFAVDEHNKKENALLEFVRVVKAKEQWYLLDVMDDTMYYLTLEAKDGGKKKLYEAKVWVKHDRRYKQAENFKELQEFKPVGDA
B6: Ad-ySUMO 4 (designed binder)
chain: NSLEIEELARFAVDEHNKKENALLEFVRVVKAKEQIDLTHSLNYTMYYLTLEAKDGGKKKLYEAKVWVKGLTNEIQKMNFKELQEFKPVGDA
B7: Ad-ySUMO 5 (designed binder)
chain: B6 chain
B8: Ad-ySUMO 8 (designed binder)
chain: NSLEIEELARFAVDEHNKKENALLEFVRVVKAKEQIDLTQTEIVTMYYLTLEAKDGGKKKLYEAKVWVKEPGIIPIVHNFKELQEFKPVGDA
B9: Ad-ySUMO 2 (designed binder)
chain: NSLEIEELARFAVDEHNKKENALLEFVRVVKAKEQIDLTNSFASTMYYLTLEAKDGGKKKLYEAKVWVKDINQYWHSMNFKELQEFKPVGDA
B10: Ad-ySUMO 7 (designed binder)
chain: NSLEIEELARFAVDEHNKKENALLEFVRVVKAKEQWVDMDYYWRTMYYLTLEAKDGGKKKLYEAKVWVKMDEIWAEYANFKELQEFKPVGDA
B11: Ad-ySUMO 16 (designed binder)
chain: B1 chain
B12: Ad-ySUMO 9 (designed binder)
chain: NSLEIEELARFAVDEHNKKENALLEFVRVVKAKEQIDLTDVWIDTMYYLTLEAKDGGKKKLYEAKVWVKGLMTQTNSMNFKELQEFKPVGDA
B13: Ad-ySUMO 11 (designed binder)
chain: NSLEIEELARFAVDEHNKKENALLEFVRVVKAKEQWILNNTQFITMYYLTLEAKDGGKKKLYEAKVWVKVLEGPDRWTVNFKELQEFKPVGDA
B14: Ad-ySUMO 13 (designed binder)
chain: NSLEIEELARFAVDEHNKKENALLEFVRVVKAKEQWDLTTPINITMYYLTLEAKDGGKKKLYEAKVWVKYEDYQTPMYNFKELQEFKPVGDA
B15: Ad-ySUMO 12 (designed binder)
chain: NSLEIEELARFAVDEHNKKENALLEFVRVVKAKEQWYERSENWDTMYYLTLEAKDGGKKKLYEAKVWVKRDYGFTLVPNFKELQEFKPVGDA
B16: Ad-ySUMO 6 (designed binder)
chain: NSLEIEELARFAVDEHNKKENALLEFVRVVKAKEQIDLTEWQDRTMYYLTLEAKDGGKKKLYEAKVWVKPEPIHSHHSNFKELQEFKPVGDA
B17: Ad-ySUMO 14 (designed binder)
chain: NSLEIEELARFAVDEHNKKENALLEFVRVVKAKEQWFDDEYDWITMYYLTLEAKDGGKKKLYEAKVWVKDYAATDLYWNFKELQEFKPVGDA
B18: Ad-ySUMO 24 (designed binder)
chain: NSLEIEELARFAVDEHNKKENALLEFVRVVKAKEQWEDFQTHWETMYYLTLEAKDGGKKKLYEAKVWVKDVGQLLSGINFKELQEFKPVGDA
B19: Ad-ySUMO 18 (designed binder)
chain: NSLEIEELARFAVDEHNKKENALLEFVRVVKAKEQWIDRGQYWDTMYYLTLEAKDGGKKKLYEAKVWVKIHNGYTIMDNFKELQEFKPVGDA
B20: Ad-ySUMO 1 (designed binder)
chain: NSLEIEELARFAVDEHNKKENALLEFVRVVKAKEQWDLTGNVDTTMYYLTLEAKDGGKKKLYEAKVWVKWDDWGERFWNFKELQEFKPVGDA
B21: Ad-ySUMO 23 (designed binder)
chain: B3 chain with Y70P, E71H, E72D, D73E, E74L, Y75N, R77N
B22: Ad-ySUMO 19 (designed binder)
chain: NSLEIEELARFAVDEHNKKENALLEFVRVVKAKEQWSEADNDWHTMYYLTLEAKDGGKKKLYEAKVWVKLDLETWQHFNFKELQEFKPVGDA
B23: Ad-ySUMO 3 (designed binder)
chain: NSLEIEELARFAVDEHNKKENALLEFVRVVKAKEQINLMMVSPMTMYYLTLEAKDGGKKKLYEAKVWVKGIQQNPSHANFKELQEFKPVGDA

Target: yeast Small Ubiquitin-like Modifier protein (SUMO) (yeast) [SUMO: Q12306]
Test: ELISA with biotinylated Adhiron

binding, binds:
B1
B2
B3
B4

Target: yeast Small Ubiquitin-like Modifier protein (SUMO) (yeast) [SUMO: Q12306]
Test: phage ELISA on biotinylated ySUMO

binding, binds:
B5
B6
B7
B8
B9
B10
B11
B1
B12
B13
B14
B15
B2
B16
B17
B18
B19
B20
B3
B21
B22
B23
B4

Target: yeast Small Ubiquitin-like Modifier protein (SUMO) (yeast) [SUMO: Q12306]
Test: ELISA and Western blot with biotinylated Adhiron

binding, binds:
B1
B2
B3
B4

Target: yeast Small Ubiquitin-like Modifier protein (SUMO) (yeast) [SUMO: Q12306]
Test: NMR, 1H-15N TROSY HSQC of the complex

binding, binds:
B3
